The list shows a part of the results.
Assays:
Experiment in all cases: log2 fold change, soluble protein after heating vs DMSO (PISA); higher = thermal stabilisation; K562 lysate, 10 uM; active = over 0.2 and 3.5 SD of the protein, either way, in both replicates (recomputed)
vemurafenib = compound: CCCS(=O)(=O)Nc1ccc(F)c(C(=O)c2c[nH]c3ncc(-c4ccc(Cl)cc4)cc23)c1F [vemurafenib]
Procedure, shortened: (§1)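 Values give the log-two fold change in thermal stability against solvent controls, from duplicates. Crude K562 extract at 1 mg/mL protein, made by dounce homogenisation in PBS pH 7.4 with 1 mM MgCl2, was treated with 10 μM compound for 30 min. After 3 min heating across 48°C-58°C, aliquots were pooled, adjusted to 0.5% NP-40 at 4°C and centrifuged at 21,000xg for 90 min. The supernatant was measured by TMTpro 16plex LC-MS/MS with channel sums equalised.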

Chains of the proteins cited; added tags and fusions are not shown. Lines headed by an entry give the natural chain unless they say otherwise; changes in a name come on top.
UniProt Q9NY93: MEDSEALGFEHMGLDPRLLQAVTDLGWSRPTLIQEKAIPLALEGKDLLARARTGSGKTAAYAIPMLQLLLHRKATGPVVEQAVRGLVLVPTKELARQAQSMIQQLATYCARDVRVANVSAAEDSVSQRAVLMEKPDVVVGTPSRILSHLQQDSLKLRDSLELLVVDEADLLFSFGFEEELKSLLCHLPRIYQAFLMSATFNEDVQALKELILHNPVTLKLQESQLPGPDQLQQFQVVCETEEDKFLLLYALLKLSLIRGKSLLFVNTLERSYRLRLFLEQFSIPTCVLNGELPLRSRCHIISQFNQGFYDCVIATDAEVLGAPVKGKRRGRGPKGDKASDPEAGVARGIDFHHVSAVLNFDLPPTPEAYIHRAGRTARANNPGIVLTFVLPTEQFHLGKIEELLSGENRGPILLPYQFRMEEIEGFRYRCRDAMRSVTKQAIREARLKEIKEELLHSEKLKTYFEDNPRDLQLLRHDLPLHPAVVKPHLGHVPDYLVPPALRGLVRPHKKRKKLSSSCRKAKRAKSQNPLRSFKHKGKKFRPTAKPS
UniProt Q9UER7, whole entry, looked up: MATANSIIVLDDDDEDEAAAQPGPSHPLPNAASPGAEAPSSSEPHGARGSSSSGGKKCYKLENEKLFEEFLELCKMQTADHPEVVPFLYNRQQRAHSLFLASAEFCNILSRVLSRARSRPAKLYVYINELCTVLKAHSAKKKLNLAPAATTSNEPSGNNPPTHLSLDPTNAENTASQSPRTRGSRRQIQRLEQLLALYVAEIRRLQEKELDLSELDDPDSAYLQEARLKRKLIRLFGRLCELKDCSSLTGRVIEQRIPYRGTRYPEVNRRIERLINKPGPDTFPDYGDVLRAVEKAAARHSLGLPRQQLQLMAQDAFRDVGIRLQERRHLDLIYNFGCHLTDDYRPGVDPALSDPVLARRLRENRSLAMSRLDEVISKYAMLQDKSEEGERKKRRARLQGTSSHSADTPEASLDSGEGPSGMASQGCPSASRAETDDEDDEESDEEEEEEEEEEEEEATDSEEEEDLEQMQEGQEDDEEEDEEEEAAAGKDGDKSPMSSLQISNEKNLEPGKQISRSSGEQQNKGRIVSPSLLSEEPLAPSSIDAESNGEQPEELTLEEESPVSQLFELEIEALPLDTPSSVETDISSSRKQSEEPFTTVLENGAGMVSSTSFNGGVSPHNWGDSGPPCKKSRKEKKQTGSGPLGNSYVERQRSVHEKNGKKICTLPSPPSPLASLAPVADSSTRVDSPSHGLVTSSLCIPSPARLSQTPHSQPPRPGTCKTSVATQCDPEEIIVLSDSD
UniProt Q5T1V6: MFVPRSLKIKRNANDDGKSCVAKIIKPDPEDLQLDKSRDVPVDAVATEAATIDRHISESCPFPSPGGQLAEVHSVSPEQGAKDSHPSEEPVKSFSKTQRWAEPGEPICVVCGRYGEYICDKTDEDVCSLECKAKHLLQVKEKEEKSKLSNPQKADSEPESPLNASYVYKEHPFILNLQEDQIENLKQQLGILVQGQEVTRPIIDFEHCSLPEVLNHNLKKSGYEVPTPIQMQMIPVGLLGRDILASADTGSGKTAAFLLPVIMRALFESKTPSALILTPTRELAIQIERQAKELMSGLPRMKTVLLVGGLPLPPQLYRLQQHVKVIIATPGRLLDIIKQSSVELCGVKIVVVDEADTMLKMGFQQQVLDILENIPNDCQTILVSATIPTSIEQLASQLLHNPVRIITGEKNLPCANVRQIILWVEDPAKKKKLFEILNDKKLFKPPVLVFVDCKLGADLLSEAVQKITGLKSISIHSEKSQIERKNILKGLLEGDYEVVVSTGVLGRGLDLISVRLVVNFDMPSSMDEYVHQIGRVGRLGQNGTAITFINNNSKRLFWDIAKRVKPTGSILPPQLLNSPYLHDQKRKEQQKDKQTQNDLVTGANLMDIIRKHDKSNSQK
UniProt Q8IWF6: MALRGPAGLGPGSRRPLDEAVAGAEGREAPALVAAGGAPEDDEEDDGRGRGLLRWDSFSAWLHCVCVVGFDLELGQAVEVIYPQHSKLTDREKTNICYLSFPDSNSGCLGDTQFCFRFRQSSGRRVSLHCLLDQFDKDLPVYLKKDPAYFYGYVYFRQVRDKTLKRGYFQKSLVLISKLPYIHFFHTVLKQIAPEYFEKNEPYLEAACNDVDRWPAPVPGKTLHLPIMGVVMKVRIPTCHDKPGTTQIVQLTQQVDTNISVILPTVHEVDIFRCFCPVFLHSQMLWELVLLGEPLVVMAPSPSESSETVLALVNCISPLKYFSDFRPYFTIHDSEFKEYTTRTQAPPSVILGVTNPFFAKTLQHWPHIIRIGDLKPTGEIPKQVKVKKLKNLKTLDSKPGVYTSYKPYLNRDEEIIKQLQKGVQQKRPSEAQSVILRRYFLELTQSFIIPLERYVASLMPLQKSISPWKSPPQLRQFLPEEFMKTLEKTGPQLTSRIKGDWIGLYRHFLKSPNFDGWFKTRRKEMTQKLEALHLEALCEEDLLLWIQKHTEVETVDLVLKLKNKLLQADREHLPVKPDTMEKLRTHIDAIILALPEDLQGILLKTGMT
UniProt Q66K64, whole entry, looked up: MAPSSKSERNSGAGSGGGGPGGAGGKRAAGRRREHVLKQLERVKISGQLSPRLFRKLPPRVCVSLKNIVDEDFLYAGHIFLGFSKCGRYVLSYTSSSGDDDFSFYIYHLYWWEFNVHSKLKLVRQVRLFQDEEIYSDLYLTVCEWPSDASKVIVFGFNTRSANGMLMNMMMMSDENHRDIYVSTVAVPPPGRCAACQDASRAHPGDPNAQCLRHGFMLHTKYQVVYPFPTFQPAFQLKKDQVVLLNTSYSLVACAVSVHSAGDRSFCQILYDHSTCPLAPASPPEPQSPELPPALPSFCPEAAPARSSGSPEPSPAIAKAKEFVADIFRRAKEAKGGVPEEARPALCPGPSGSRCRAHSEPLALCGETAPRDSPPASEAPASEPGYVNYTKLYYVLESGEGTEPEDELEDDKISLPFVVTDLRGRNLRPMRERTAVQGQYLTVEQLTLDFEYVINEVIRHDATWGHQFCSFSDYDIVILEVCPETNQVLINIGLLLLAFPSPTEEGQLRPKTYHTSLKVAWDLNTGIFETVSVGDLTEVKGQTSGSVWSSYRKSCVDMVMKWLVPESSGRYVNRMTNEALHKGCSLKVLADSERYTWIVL
UniProt P35659: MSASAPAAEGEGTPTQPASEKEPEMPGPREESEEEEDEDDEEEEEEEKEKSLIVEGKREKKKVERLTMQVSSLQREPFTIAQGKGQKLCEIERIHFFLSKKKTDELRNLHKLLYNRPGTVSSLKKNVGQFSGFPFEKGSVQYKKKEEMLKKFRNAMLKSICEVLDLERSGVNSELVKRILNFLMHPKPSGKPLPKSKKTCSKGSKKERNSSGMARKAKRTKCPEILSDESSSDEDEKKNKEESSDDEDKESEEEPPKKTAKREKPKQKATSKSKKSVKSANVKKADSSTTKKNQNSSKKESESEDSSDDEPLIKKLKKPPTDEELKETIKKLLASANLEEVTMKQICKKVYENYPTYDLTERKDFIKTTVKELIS
UniProt Q9Y315: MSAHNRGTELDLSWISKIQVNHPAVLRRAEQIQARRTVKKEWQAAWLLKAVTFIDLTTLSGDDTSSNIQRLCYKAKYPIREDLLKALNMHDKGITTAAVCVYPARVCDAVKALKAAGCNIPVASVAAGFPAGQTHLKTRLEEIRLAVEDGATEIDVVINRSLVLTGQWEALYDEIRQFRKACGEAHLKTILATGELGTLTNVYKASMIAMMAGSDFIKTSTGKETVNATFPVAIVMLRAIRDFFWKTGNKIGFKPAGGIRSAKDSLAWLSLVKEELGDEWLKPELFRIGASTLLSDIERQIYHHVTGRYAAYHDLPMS
UniProt Q9UMR2: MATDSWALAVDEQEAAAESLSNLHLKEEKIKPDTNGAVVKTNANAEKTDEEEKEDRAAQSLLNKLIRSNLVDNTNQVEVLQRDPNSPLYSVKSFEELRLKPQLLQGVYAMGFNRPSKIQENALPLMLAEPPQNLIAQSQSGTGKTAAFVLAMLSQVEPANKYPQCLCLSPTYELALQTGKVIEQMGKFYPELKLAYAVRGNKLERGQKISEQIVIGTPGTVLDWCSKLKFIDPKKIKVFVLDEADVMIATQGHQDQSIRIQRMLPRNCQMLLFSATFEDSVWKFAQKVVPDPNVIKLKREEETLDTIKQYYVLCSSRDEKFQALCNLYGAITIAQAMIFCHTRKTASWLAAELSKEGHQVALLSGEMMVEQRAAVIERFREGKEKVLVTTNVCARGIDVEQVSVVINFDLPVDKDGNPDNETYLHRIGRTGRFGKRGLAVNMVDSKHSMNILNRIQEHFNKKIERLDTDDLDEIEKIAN
UniProt Q7Z401: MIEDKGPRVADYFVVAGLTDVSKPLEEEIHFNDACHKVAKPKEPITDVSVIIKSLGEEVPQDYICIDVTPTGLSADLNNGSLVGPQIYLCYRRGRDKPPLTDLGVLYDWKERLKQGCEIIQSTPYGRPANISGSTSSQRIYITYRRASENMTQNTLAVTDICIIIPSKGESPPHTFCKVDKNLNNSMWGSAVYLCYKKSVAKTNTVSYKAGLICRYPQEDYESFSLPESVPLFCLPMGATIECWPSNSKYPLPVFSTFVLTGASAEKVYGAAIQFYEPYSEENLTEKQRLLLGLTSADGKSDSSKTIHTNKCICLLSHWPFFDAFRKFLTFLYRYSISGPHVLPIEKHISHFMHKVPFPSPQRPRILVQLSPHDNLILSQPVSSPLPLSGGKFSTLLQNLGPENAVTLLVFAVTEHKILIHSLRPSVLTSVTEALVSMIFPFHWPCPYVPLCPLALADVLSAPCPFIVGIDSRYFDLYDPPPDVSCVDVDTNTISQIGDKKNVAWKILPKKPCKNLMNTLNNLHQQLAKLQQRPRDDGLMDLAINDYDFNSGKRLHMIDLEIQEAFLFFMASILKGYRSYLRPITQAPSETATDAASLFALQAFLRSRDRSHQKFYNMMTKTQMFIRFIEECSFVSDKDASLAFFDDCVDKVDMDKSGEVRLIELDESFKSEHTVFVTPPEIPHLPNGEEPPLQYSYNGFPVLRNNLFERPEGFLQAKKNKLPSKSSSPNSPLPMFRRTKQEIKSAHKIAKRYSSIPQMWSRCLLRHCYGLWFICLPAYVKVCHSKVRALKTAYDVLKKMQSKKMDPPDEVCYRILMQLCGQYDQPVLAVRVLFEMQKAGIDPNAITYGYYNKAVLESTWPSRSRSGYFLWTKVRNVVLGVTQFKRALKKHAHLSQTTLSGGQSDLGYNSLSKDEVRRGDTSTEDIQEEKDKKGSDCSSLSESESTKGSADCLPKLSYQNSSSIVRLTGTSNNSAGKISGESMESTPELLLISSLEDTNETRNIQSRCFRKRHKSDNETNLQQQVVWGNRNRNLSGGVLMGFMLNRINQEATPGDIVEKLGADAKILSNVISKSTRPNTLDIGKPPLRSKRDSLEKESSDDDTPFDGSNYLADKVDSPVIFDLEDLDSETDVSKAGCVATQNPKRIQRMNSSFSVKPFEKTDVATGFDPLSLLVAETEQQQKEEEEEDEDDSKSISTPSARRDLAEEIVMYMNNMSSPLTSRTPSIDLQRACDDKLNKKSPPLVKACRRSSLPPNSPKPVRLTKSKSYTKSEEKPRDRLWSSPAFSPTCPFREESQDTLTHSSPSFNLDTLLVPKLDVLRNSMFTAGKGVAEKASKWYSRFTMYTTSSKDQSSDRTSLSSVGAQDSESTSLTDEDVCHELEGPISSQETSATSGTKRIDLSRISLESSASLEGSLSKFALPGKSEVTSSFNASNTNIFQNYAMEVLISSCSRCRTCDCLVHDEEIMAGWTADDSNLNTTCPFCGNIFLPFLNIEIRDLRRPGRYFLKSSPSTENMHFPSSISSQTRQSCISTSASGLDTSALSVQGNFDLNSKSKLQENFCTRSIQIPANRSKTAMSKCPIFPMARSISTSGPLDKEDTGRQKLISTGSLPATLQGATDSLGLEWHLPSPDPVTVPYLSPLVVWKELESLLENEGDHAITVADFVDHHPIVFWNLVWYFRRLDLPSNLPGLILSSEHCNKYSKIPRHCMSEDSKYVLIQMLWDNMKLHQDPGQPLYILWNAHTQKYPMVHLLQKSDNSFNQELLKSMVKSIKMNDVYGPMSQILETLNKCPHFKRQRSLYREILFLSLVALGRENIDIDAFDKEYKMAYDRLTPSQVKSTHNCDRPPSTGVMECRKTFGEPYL
UniProt O15121: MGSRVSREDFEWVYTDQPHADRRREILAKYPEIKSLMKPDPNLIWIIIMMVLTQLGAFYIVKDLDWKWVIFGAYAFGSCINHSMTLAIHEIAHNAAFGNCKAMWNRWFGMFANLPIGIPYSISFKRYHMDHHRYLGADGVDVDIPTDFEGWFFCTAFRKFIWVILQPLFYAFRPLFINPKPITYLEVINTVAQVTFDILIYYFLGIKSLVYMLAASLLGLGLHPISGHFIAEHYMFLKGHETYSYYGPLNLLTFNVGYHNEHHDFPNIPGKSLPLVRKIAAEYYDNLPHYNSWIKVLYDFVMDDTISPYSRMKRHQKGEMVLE

[1] = compound: CCCS(=O)(=O)Nc1ccc(F)c(C(=O)c2c[nH]c3ncc(Cl)cc23)c1F
Procedure, shortened: as §1

barasertib = compound: CCN(CCCOc1ccc2c(Nc3cc(CC(=O)Nc4cccc(F)c4)[nH]n3)ncnc2c1)CCOP(=O)(O)O [barasertib]
Procedure, shortened: as §1

[2] = compound: CC[C@@H]1C(=O)N(C)c2cnc(Nc3ccc(C(=O)NC4CCN(C)CC4)cc3OC)nc2N1C1CCCC1
Procedure, shortened: as §1

volasertib = compound: CC[C@@H]1C(=O)N(C)c2cnc(Nc3ccc(C(=O)N[C@H]4CC[C@H](N5CCN(CC6CC6)CC5)CC4)cc3OC)nc2N1C(C)C [volasertib]
Procedure, shortened: as §1

[3] = compound: CCn1c(C(=O)N(C2CC2)C2CC2)cc2c3c(ncn3C)c(Nc3cc(C)n(C)n3)nc21
Procedure, shortened: as §1

[4] = compound: CCn1cc(-c2ccnc3[nH]c(-c4cccc(CN(C)C)c4)cc23)c(-c2ccc(NC(=O)N(C)C)cc2)n1
Procedure, shortened: as §1

[5] = compound: CN1CCC(CNc2ccc3ncc(-c4cccc(OC(F)(F)F)c4)n3n2)CC1
Procedure, shortened: as §1

saracatinib = compound: CN1CCN(CCOc2cc(OC3CCOCC3)c3c(Nc4c(Cl)ccc5c4OCO5)ncnc3c2)CC1 [saracatinib]
Procedure, shortened: as §1

sotrastaurin = compound: CN1CCN(c2nc(C3=C(c4c[nH]c5ccccc45)C(=O)NC3=O)c3ccccc3n2)CC1 [sotrastaurin]
Procedure, shortened: as §1

alvocidib = compound: CN1CC[C@H](c2c(O)cc(O)c3c(=O)cc(-c4ccccc4Cl)oc23)[C@H](O)C1 [alvocidib]
Procedure, shortened: as §1

Tubastatin A = compound: CN1CCc2c(c3ccccc3n2Cc2ccc(C(=O)NO)cc2)C1 [Tubastatin A]
Procedure, shortened: as §1

[6] = compound: CNC(=O)C1=CC=CC=C1NC2=NC(=NC=C2Cl)NC3=C(C=C(C=C3)N4CCOCC4)OC
Procedure, shortened: as §1

defactinib = compound: CNC(=O)c1ccc(Nc2ncc(C(F)(F)F)c(NCc3nccnc3N(C)S(C)(=O)=O)n2)cc1 [defactinib]
Procedure, shortened: as §1

[7] = compound: CNc1nc(-c2ccc3c(N)n[nH]c3c2)cc(N2C[C@@H](C(=O)NC3CCCCC3)CC[C@H]2C)n1
Procedure, shortened: as §1

encorafenib = compound: COC(=O)N[C@@H](C)CNc1nccc(-c2cn(C(C)C)nc2-c2cc(Cl)cc(NS(C)(=O)=O)c2F)n1 [encorafenib]
Procedure, shortened: as §1

[8] = compound: COC(=O)[C@H](CCSC)NC(=O)C1=C(C=C(C=C1)NC[C@H](CS)N)C2=CC=CC=C2
Procedure, shortened: as §1

alisertib = compound: COc1cc(Nc2ncc3c(n2)-c2ccc(Cl)cc2C(c2c(F)cccc2OC)=NC3)ccc1C(=O)O [alisertib]
Procedure, shortened: as §1

[9] = compound: COc1cc2nc(-c3cc(F)ccc3O)nc(N[C@@H]3CNC[C@H]3C(C)(C)O)c2cc1OC
Procedure, shortened: as §1

gefitinib = compound: COc1cc2ncnc(Nc3ccc(F)c(Cl)c3)c2cc1OCCCN1CCOCC1 [gefitinib]
Procedure, shortened: as §1

Row | Target | log2 fold change (vemurafenib) | log2 fold change [1] | log2 fold change (barasertib) | log2 fold change [2] | log2 fold change (volasertib) | log2 fold change [3] | log2 fold change [4] | log2 fold change [5] | log2 fold change (saracatinib) | log2 fold change (sotrastaurin) | log2 fold change (alvocidib) | log2 fold change (Tubastatin A) | log2 fold change [6] | log2 fold change (defactinib) | log2 fold change [7] | log2 fold change (encorafenib) | log2 fold change [8] | log2 fold change (alisertib) | log2 fold change [9] | log2 fold change (gefitinib)
1 | DCTPP1 (UniProt Q9H773) | inactive: 0.073 | inactive: -0.064 | inactive: 0.203 | inactive: -0.012 | inactive: 0.015 | inactive: -0.006 | inactive: -0.024 | inactive: -0.084 | inactive: -0.008 | inactive: 0.034 | inactive: 0.023 | inactive: 0.082 | inactive: 0.024 | inactive: 0.016 | inactive: 0.052 | inactive: -0.025 | inactive: -0.063 | inactive: 0.04 | inactive: 0.013 | inactive: -0.036
2 | DERL2 (UniProt Q9GZP9) | inactive: 0.079 | inactive: -0.012 | inactive: -0.009 | inactive: 0.02 | inactive: -0.163 | inactive: -0.057 | inactive: -0.06 | inactive: -0.003 | inactive: 0.072 | inactive: 0.048 | inactive: 0.05 | inactive: 0.071 | inactive: 0.004 | inactive: -0.06 | inactive: 0.147 | inactive: -0.062 | inactive: 0.044 | inactive: -0.036 | inactive: 0.082 | inactive: 0.038
3 | DDX56 (UniProt Q9NY93) | inactive: 0.026 | inactive: 0.008 | inactive: 0.059 | inactive: 0.099 | inactive: -0.067 | inactive: -0.01 | inactive: -0.038 | inactive: 0.043 | inactive: -0.007 | inactive: 0.029 | inactive: 0.075 | inactive: -0.058 | inactive: 0.043 | inactive: 0.051 | inactive: 0.061 | inactive: 0.048 | inactive: 0.019 | inactive: 0.01 | inactive: 0.004 | inactive: -0.025
4 | CYP24A1 (UniProt Q07973) | inactive: 0.065 | inactive: -0.01 | inactive: -0.055 | inactive: 0.166 | inactive: 0.006 | inactive: -0.212 | active: -0.499 | inactive: 0.268 | inactive: 0.056 | inactive: 0 | inactive: -0.258 | inactive: 0.163 | inactive: -0.021 | inactive: -0.158 | inactive: 0.226 | inactive: 0.011 | inactive: 0.043 | inactive: 0.049 | inactive: 0.13 | inactive: -0.05
5 | DAXX (UniProt Q9UER7) | inactive: 0.033 | inactive: 0.024 | inactive: -0.017 | inactive: 0.057 | inactive: 0.046 | inactive: -0.019 | inactive: 0.012 | inactive: -0.059 | inactive: 0.013 | inactive: -0.007 | inactive: -0.016 | inactive: -0.045 | inactive: 0.023 | inactive: 0.001 | inactive: 0.179 | inactive: 0.013 | inactive: 0.044 | inactive: -0.01 | inactive: 0.08 | inactive: 0.008
6 | DCAF16 (UniProt Q9NXF7) | inactive: 0.04 | inactive: 0.034 | inactive: 0.028 | inactive: 0.046 | inactive: -0.006 | inactive: 0.003 | inactive: 0.195 | inactive: -0.13 | inactive: -0.023 | inactive: -0.006 | inactive: 0.098 | inactive: 0.135 | inactive: 0.038 | inactive: 0.052 | inactive: 0.051 | inactive: -0.022 | inactive: 0.137 | inactive: 0.013 | inactive: 0.034 | inactive: -0.103
7 | DDX59 (UniProt Q5T1V6) | inactive: 0.05 | inactive: 0.008 | inactive: -0.004 | inactive: -0.015 | inactive: 0.014 | inactive: 0.055 | inactive: -0.008 | inactive: 0.027 | inactive: -0.004 | inactive: 0 | inactive: 0.016 | inactive: 0.023 | inactive: 0.039 | inactive: 0.052 | inactive: -0.015 | inactive: -0.012 | inactive: 0 | inactive: 0.048 | inactive: 0.02 | inactive: 0.002
8 | DENND6A (UniProt Q8IWF6) | inactive: 0.025 | inactive: 0.033 | inactive: 0.066 | inactive: 0.029 | inactive: -0.062 | inactive: 0.019 | inactive: 0.017 | inactive: 0.004 | inactive: -0.012 | inactive: -0.027 | inactive: -0.009 | inactive: -0.072 | inactive: -0.006 | inactive: 0.007 | inactive: 0.103 | inactive: 0.007 | inactive: -0.134 | inactive: 0.059 | inactive: -0.024 | inactive: 0.047
9 | DCAF15 (UniProt Q66K64) | inactive: -0.031 | inactive: 0.052 | inactive: 0.047 | inactive: -0.053 | inactive: -0.017 | inactive: -0.028 | inactive: -0.189 | inactive: 0.137 | inactive: -0.057 | inactive: -0.021 | inactive: -0.036 | inactive: 0.055 | inactive: -0.007 | inactive: -0.037 | inactive: 0.043 | inactive: 0.005 | inactive: 0.143 | inactive: 0.046 | inactive: -0.029 | inactive: -0.071
10 | DEK (UniProt P35659) | inactive: 0.005 | inactive: -0.003 | inactive: -0.027 | inactive: 0.04 | inactive: 0.001 | inactive: -0.011 | inactive: -0.043 | inactive: 0.01 | inactive: -0.007 | inactive: -0.037 | inactive: 0.017 | inactive: -0.004 | inactive: 0.017 | inactive: -0.005 | inactive: 0.027 | inactive: -0.013 | inactive: -0.003 | inactive: -0.004 | inactive: 0 | inactive: -0.002
11 | DERA (UniProt Q9Y315) | inactive: -0.013 | inactive: -0.001 | inactive: -0.064 | inactive: 0.077 | inactive: 0.025 | inactive: -0.031 | active: 0.985 | inactive: -0.115 | inactive: 0 | inactive: -0.03 | inactive: 0.121 | inactive: 0.018 | inactive: 0.033 | inactive: -0.003 | inactive: 0.085 | inactive: -0.005 | inactive: -0.053 | inactive: -0.059 | inactive: -0.01 | inactive: 0.087
12 | DDX19B (UniProt Q9UMR2) | inactive: -0.002 | inactive: -0.002 | inactive: 0.119 | inactive: 0.007 | inactive: -0.034 | inactive: -0.008 | inactive: -0.077 | inactive: 0.028 | inactive: 0 | inactive: 0.018 | inactive: -0.012 | inactive: -0.028 | inactive: 0.002 | inactive: -0.009 | inactive: 0.022 | inactive: 0 | inactive: 0.064 | inactive: 0.004 | inactive: 0.016 | inactive: 0.026
13 | DENND4A isoform 2 (UniProt Q7Z401) | inactive: -0.024 | inactive: 0.024 | inactive: 0.029 | inactive: 0.011 | inactive: -0.069 | inactive: 0.004 | inactive: -0.132 | inactive: 0.099 | inactive: 0.059 | inactive: 0.025 | inactive: -0.067 | inactive: -0.141 | inactive: -0.024 | inactive: 0.077 | inactive: -0.001 | inactive: 0.013 | inactive: 0.032 | inactive: -0.018 | inactive: 0.17 | inactive: -0.041
14 | DCTN4 (UniProt Q9UJW0) | inactive: -0.012 | inactive: 0.015 | inactive: -0.03 | inactive: 0.067 | inactive: 0.007 | inactive: -0.043 | inactive: -0.03 | inactive: 0.035 | inactive: -0.01 | inactive: -0.04 | inactive: -0.014 | inactive: 0.025 | inactive: 0.012 | inactive: 0.022 | inactive: 0.024 | inactive: 0.024 | inactive: -0.032 | inactive: -0.002 | inactive: 0.005 | inactive: -0.044
15 | DEGS1 (UniProt O15121) | inactive: 0.117 | inactive: 0.056 | inactive: 0.005 | inactive: 0.034 | inactive: 0.007 | inactive: -0.055 | inactive: 0.044 | inactive: 0.017 | inactive: 0.041 | inactive: 0.001 | inactive: -0.023 | inactive: 0.001 | inactive: -0.03 | inactive: 0.028 | inactive: 0.067 | inactive: 0.141 | inactive: -0.153 | inactive: -0.036 | inactive: -0.034 | inactive: 0.03
16 | DDX21 (UniProt Q9NR30) | inactive: 0.029 | inactive: 0.006 | inactive: 0.021 | inactive: -0.047 | inactive: -0.005 | inactive: -0.002 | inactive: -0.032 | inactive: -0.031 | inactive: -0.007 | inactive: 0.006 | inactive: 0.019 | inactive: -0.055 | inactive: -0.017 | inactive: 0.016 | inactive: 0.013 | inactive: -0.001 | inactive: -0.03 | inactive: 0.014 | inactive: 0.005 | inactive: -0.03

Retrieved one by one from the entries so far, 2 records:
Row | Target | log2 fold change (vemurafenib) | log2 fold change [1] | log2 fold change (barasertib) | log2 fold change [2] | log2 fold change (volasertib) | log2 fold change [3] | log2 fold change [4] | log2 fold change [5] | log2 fold change (saracatinib) | log2 fold change (sotrastaurin) | log2 fold change (alvocidib) | log2 fold change (Tubastatin A) | log2 fold change [6] | log2 fold change (defactinib) | log2 fold change [7] | log2 fold change (encorafenib) | log2 fold change [8] | log2 fold change (alisertib) | log2 fold change [9] | log2 fold change (gefitinib)
9 | DCAF15 (UniProt Q66K64) | inactive: -0.031 | inactive: 0.052 | inactive: 0.047 | inactive: -0.053 | inactive: -0.017 | inactive: -0.028 | inactive: -0.189 | inactive: 0.137 | inactive: -0.057 | inactive: -0.021 | inactive: -0.036 | inactive: 0.055 | inactive: -0.007 | inactive: -0.037 | inactive: 0.043 | inactive: 0.005 | inactive: 0.143 | inactive: 0.046 | inactive: -0.029 | inactive: -0.071
7 | DDX59 (UniProt Q5T1V6) | inactive: 0.05 | inactive: 0.008 | inactive: -0.004 | inactive: -0.015 | inactive: 0.014 | inactive: 0.055 | inactive: -0.008 | inactive: 0.027 | inactive: -0.004 | inactive: 0 | inactive: 0.016 | inactive: 0.023 | inactive: 0.039 | inactive: 0.052 | inactive: -0.015 | inactive: -0.012 | inactive: 0 | inactive: 0.048 | inactive: 0.02 | inactive: 0.002
